Results are given in words; binding and its absence hold for the method and conditions named. Some entries that bind do so weakly or less than the wild type.
Key:
importin β1 [1] = biological target: importin β1 (UniProt Q14974); test: peptide competition assay, peptide added to the medium
importin β1 [2] = biological target: importin β1 (UniProt Q14974); test: peptide competition in neonatal rat cardiomyocytes stimulated with Ang II

The chains behind the UniProt entries cited, without tags or fusion partners.
UniProt Q14974: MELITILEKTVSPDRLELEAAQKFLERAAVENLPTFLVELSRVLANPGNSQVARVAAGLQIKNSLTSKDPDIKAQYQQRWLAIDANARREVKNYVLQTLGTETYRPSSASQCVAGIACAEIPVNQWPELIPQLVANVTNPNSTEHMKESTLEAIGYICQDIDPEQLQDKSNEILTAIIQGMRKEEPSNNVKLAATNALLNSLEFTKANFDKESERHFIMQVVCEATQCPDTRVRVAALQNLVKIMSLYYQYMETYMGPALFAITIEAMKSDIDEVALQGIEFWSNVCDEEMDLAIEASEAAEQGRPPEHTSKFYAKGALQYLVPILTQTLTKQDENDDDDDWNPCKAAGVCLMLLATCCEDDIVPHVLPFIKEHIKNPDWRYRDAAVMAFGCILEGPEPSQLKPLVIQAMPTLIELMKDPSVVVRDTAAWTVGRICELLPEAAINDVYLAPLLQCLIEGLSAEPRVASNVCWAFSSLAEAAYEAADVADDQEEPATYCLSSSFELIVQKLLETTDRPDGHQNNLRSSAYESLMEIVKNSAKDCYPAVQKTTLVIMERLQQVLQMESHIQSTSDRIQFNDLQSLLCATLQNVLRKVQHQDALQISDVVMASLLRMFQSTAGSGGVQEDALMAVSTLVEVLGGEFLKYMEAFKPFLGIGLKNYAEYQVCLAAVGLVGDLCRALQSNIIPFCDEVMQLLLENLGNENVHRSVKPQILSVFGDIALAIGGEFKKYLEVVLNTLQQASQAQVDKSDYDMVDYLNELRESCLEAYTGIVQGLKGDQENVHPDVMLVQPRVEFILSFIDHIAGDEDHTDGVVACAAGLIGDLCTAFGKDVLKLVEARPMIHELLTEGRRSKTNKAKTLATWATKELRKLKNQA

- binding (importin β1 [1]): binds
- binding (importin β1 [2]): binds
Binder: AAVALLPAVLLALLAKQECKIKYSERV

From patent US20090170765A1
